Measured values from PubChem BioAssay AID2685 (National Center for Advancing Translational Sciences (NCATS), 2010).
Some of the results follow. These are further read-outs of the screen, such as a control signal, another cell line or another target. No call is given for them. Compounds called inactive in the main read-out are mostly missing here. Potencies come from curve fits of mixed quality, noted in brackets.

Assay: qHTS Assay for Lipid Storage Modulators in Drosophila S3 Cells;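 on cell number change: cells counted by Cell Tracker Red CMTPX staining in the red channel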
Details: BODIPY lipid droplet fluorescence, 18-24 h; for cell number change: measured here: cell count max response, cells fed with added oleic acid
In short: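 Drosophila S3 cells loaded with oleic acid (400 uM, as added) and compounds at several concentrations; lipid droplets imaged by 488-nm laser-scanning cytometry, 500–530 nm intensity and object ratio to cell channel. Percent activity normalized to 20 uM Triacsin C.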

[1] = measured here: cell number channel AC50, cells fed with added oleic acid
[2] = measured here: lipid fluorescence (Fed channel) AC50, cells fed with added oleic acid

Structure (SMILES): COc1ccc(NC(=O)c2cc(CC(C)C)nc3ccccc23)cc1
- cell number change: -0.275%
- AC50 [1]: 0.146 µM [falling, full curve, poor fit]
- AC50 [2]: 29.1 µM [rising, single point]

Structure (SMILES): CCCc1ccc2oc(C(=O)N3CCC(N4CCCC(O)C4)CC3)c(C)c2c1 (configuration not stated)
- cell number change: 52.5%
- AC50 [1]: 20.6 µM [rising, partial curve]
- AC50 [2]: 32.6 µM [rising, single point]

Structure (SMILES): CCN(CC)CCNC(=O)c1cc2c(s1)-c1ccccc1SC2
- cell number change: 41.5%
- AC50 [1]: 14.6 µM [rising, partial curve, poor fit]
- AC50 [2]: 16.4 µM [rising, single point]

Structure (SMILES): CCCN1CCN(c2nc3c([nH]2)c(=N)ncn3CC(O)CO)CC1 (configuration not stated)
- cell number change: -22.7%
- AC50 [1]: 0.291 µM [falling, full curve, poor fit]
- AC50 [2]: 0.259 µM [falling, full curve]

Structure (SMILES): COc1cccc(-n2nc(C(C)=O)c(=O)[nH]c2=O)c1
- cell number change: -121%
- AC50 [1]: 20.6 µM [falling, single point]

Structure (SMILES): CC1CC(C)CN(CC(O)COCc2ccccc2)C1 (configuration not stated)
- cell number change: 15.5%
- AC50 [2]: 0.291 µM [rising, full curve, poor fit]

Structure (SMILES): O=C(C(c1ccccc1)c1ccccc1)N1CCN(CC(O)COc2ccccc2)CC1 (configuration not stated)
- AC50 [2]: 3.66 µM [falling, full curve]

Structure (SMILES): CCOc1ccccc1NC(=O)NNC(=O)COc1cccc(C)c1C
- cell number change: 8.19%
- AC50 [2]: 5.17 µM [rising, single point]

Structure (SMILES): COc1ccc(-n2nc([N+](=O)[O-])c(=NCc3ccc4c(c3)OCO4)n2O)cc1
- cell number change: 2.08%
- AC50 [1]: 6.51 µM [rising, single point]
- AC50 [2]: 4.11 µM [rising, single point]

Structure (SMILES): CN(C)CCn1c(C(=O)Nc2ccccc2)cc2ccccc21
- cell number change: -23.4%
- AC50 [2]: 32.6 µM [falling, single point]

Structure (SMILES): OC(CNCC(c1ccco1)N1CCCCC1)c1ccccc1 (configuration not stated)
- cell number change: -17.8%

Structure (SMILES): COc1ccc(CCC(C)Nc2ccc(F)c(F)c2)cc1 (configuration not stated)
- cell number change: -37.2%
- AC50 [1]: 14.6 µM [falling, single point]
- AC50 [2]: 29.1 µM [falling, single point]

Structure (SMILES): CCC(C)Sc1ccc([C@@H]2[C@@H]3C(=O)N(C)C(=O)[C@@H]3[C@]3(C(=O)OC)CCCCN23)cc1 (some centres not stated)
- cell number change: 10.6%
- AC50 [2]: 29.1 µM [rising, single point]

Structure (SMILES): COc1cccc(N2CN(CCc3ccccc3)CNC2=S)c1
- cell number change: -0.299%
- AC50 [2]: 0.146 µM [falling, full curve]

Structure (SMILES): Cc1[nH]nc2c1C1(CCC(c3ccccc3)CC1)C(C#N)=C(N)O2 (configuration not stated)
- cell number change: -15.2%
- AC50 [2]: 0.461 µM [rising, single point]

Structure (SMILES): CCOC(=O)c1[nH]c(C)c(C(=O)O)c1C
- cell number change: 31.8%
- AC50 [1]: 1.84 µM [rising, full curve, poor fit]
- AC50 [2]: 3.66 µM [falling, full curve]

Structure (SMILES): O=C(O)C1CC(c2ccc(F)cc2)=NO1 (configuration not stated)
- cell number change: -38.3%
- AC50 [1]: 25.9 µM [falling, single point]
- AC50 [2]: 29.1 µM [falling, single point]

Structure (SMILES): Cc1ccc(O)c(N=NC2=C(O)CC(C)(C)CC2=O)c1
- cell number change: -31.3%
- AC50 [2]: 23.1 µM [falling, partial curve]

Structure (SMILES): Cc1ccc([N+](=O)[O-])cc1S(=O)(=O)Nc1ccc(N2CCOCC2)cc1
- cell number change: 27.5%
- AC50 [2]: 18.4 µM [rising, single point]

Structure (SMILES): COc1cccc(CN2CCN(Cc3ccco3)CC2)c1
- AC50 [1]: 0.58 µM [falling, single point]

Structure (SMILES): CCC1CCCCN1CC(O)Cn1c2ccccc2n2c(=O)cc(C)c(C#N)c12 (configuration not stated)
- cell number change: 17.4%
- AC50 [2]: 1.46 µM [rising, partial curve, poor fit]

Structure (SMILES): Cc1cccc(C(C)C)c1NS(=O)(=O)c1cn(C)nc1C
- cell number change: -4.85%
- AC50 [2]: 0.13 µM [rising, partial curve, poor fit]

Structure (SMILES): CC(=O)Nc1ccc(NC(=O)COC(=O)c2n[nH]c3ccccc23)cc1
- cell number change: -24.8%

Structure (SMILES): Cc1noc(C)c1COc1ccccc1C(=O)NNC(=O)c1ccccc1
- cell number change: -4.49%

Structure (SMILES): COCCc1ncc(CN2CCCCC2C(=O)Nc2ccc(Oc3ccccc3)nc2)cn1 (configuration not stated)
- cell number change: 6.74%

Structure (SMILES): O=C(NC1CCCC1)C(c1ccncc1)N(CC1CCCO1)C(=O)Cn1nnc(-c2cccs2)n1 (configuration not stated)
- cell number change: 42.7%
- AC50 [1]: 25.9 µM [rising, single point]

Structure (SMILES): COc1cccc2cc(C(=O)N3CCN(C/C=C/c4ccccc4)CC3)c(=O)oc12
- cell number change: 3.24%
- AC50 [2]: 0.82 µM [rising, full curve, poor fit]

Structure (SMILES): Cn1c(NC(=O)CC2CCCCC2)cc(=O)n(C)c1=O
- cell number change: 15.6%
- AC50 [2]: 0.146 µM [rising, full curve, poor fit]

Structure (SMILES): Cc1nn(-c2ccccc2)c(=S)c2ccccc12
- cell number change: 26.9%

Structure (SMILES): COc1cc(C(=S)N2CCOCC2)ccc1OC(=O)c1ccc([N+](=O)[O-])cc1[N+](=O)[O-]
- cell number change: -5.74%
- AC50 [2]: 0.116 µM [rising, full curve, poor fit]

Structure (SMILES): O=C(O)CCC(=O)Nc1ccc(-c2csc(Nc3cccc4ccccc34)n2)cc1
- cell number change: -14.5%
- AC50 [1]: 0.651 µM [falling, full curve, poor fit]
- AC50 [2]: 0.82 µM [falling, full curve, poor fit]

Structure (SMILES): O=C(CSc1nnc(CNC(=O)c2c(F)cccc2Cl)o1)NC1CCCC1
- cell number change: -19.8%
- AC50 [2]: 29.1 µM [rising, single point]

Structure (SMILES): O=C(CCCc1ccccc1)NCc1ccccc1
- cell number change: -1.62%

Structure (SMILES): Fc1ccc(/C=N/N2CCN(Cc3ccccc3)CC2)cc1
- cell number change: 5.56%
- AC50 [2]: 20.6 µM [falling, single point]

Structure (SMILES): Cc1ccccc1C(=O)Nc1cccc(NC(=O)c2ccccc2[N+](=O)[O-])c1
- cell number change: -1.69%
- AC50 [2]: 6.51 µM [falling, single point]

Structure (SMILES): CC1CN(S(=O)(=O)c2cccc(C(=O)NNC(=O)C(C)Oc3ccccc3F)c2)CC(C)O1 (configuration not stated)
- cell number change: -18.9%

Structure (SMILES): Cc1ccc(-n2c(=O)cc(N3CC(C)CC(C)C3)[nH]c2=O)cc1 (configuration not stated)
- cell number change: -48%
- AC50 [1]: 18.4 µM [falling, partial curve, poor fit]
- AC50 [2]: 14.6 µM [falling, partial curve, poor fit]

Structure (SMILES): CC(=O)c1c(N)c(C#N)c(C)n1-c1ccc(Br)cc1
- cell number change: 100%
- AC50 [1]: 3.66 µM [rising, full curve]
- AC50 [2]: 2.59 µM [rising, full curve]

Structure (SMILES): CN(C)CCNC(=S)Nc1ccc(Cl)cc1Cl
- cell number change: -12.5%
- AC50 [2]: 32.6 µM [falling, partial curve]

Structure (SMILES): COc1ccc(S(=O)(=O)N2CCCCCC2)cc1NC(=O)CN(C)Cc1ccc2c(c1)OCO2
- cell number change: -11.2%
- AC50 [1]: 6.51 µM [rising, single point]

Structure (SMILES): C=CCn1c(CCNC(=O)c2ccccc2F)nnc1SCC(=O)Nc1nc2ccccc2s1
- cell number change: -23.5%
- AC50 [2]: 18.4 µM [falling, single point]

Structure (SMILES): C/C(=N/OC(=O)c1ccc(C)cc1)C(=O)c1ccc(Br)cc1
- cell number change: 36.3%
- AC50 [1]: 13 µM [rising, partial curve, poor fit]

Structure (SMILES): COCCN(C(=O)COC(=O)CC1CCCCC1)c1c(N)n(Cc2ccccc2)c(=O)[nH]c1=O
- cell number change: -13.8%

Structure (SMILES): O=C(CCSCCc1ccccn1)Nc1cc(F)ccc1F
- cell number change: 39.9%
- AC50 [1]: 7.31 µM [rising, partial curve]
- AC50 [2]: 0.58 µM [rising, single point]

Structure (SMILES): O=C(NNC(=O)c1cccc(Br)c1)C(=O)N1CCCCC1
- cell number change: -17.8%
- AC50 [2]: 3.26 µM [falling, full curve, poor fit]

Structure (SMILES): COC(=O)c1[nH]c2cc(OC)c(OC)cc2c1NC(=O)CN1C[C@H]2C[C@@H](C1)c1cccc(=O)n1C2
- cell number change: 10.1%
- AC50 [2]: 0.116 µM [rising, full curve, poor fit]

Structure (SMILES): COc1ccccc1/C=C/CN1CCC(n2nccc2NC(=O)CCc2ccccc2)CC1
- cell number change: -28.5%
- AC50 [2]: 23.1 µM [falling, single point]

Structure (SMILES): Cc1ccc(C)c(N2CCN(S(=O)(=O)c3ccc4c(c3)CCC(=O)N4)CC2)c1
- cell number change: 7.52%

Structure (SMILES): CC(=O)Nc1ccc(S(=O)(=O)NNC(=O)COc2ccc(Cl)cc2Cl)cc1
- cell number change: 49%
- AC50 [1]: 16.4 µM [rising, partial curve]
- AC50 [2]: 8.2 µM [rising, partial curve]

Structure (SMILES): COc1cc(CNc2nc3ccccc3n2C)cc(OC)c1OC
- cell number change: 16.2%
- AC50 [2]: 4.61 µM [rising, partial curve, poor fit]

Structure (SMILES): CCOC(=O)c1ccc(N2C(=O)c3n[nH]c(C)c3C2c2cccnc2)cc1 (configuration not stated)
- cell number change: -5.27%
- AC50 [2]: 0.164 µM [rising, full curve, poor fit]

Structure (SMILES): CCOc1ccc(/C=C2\SC(=S)N(CCC(=O)N(CCO)c3ccccc3)C2=O)cc1
- cell number change: -33.8%
- AC50 [1]: 14.6 µM [falling, single point]

Structure (SMILES): CCS(=O)(=O)NCCc1csc(-c2ccc(OC)c(OC)c2)n1
- cell number change: 10.6%
- AC50 [2]: 2.59 µM [rising, single point]

Structure (SMILES): CN(C(=O)COc1ncnc2c1cnn2-c1ccccc1)C1CCCCC1
- cell number change: 2.06%

Structure (SMILES): CNC(=S)N(Cc1ccco1)Cc1cc2cc(OC)ccc2[nH]c1=O
- cell number change: 1.61%

Structure (SMILES): COc1ccc(C(=O)N2CCN(Cc3ccccc3[N+](=O)[O-])CC2)cc1
- cell number change: -10.1%
- AC50 [2]: 6.51 µM [rising, single point]

Structure (SMILES): CCN(CC)C(=O)c1[nH]cnc1C(=O)NCc1ccc(CNC(=O)OC(C)(C)C)cc1
- cell number change: 21.9%
- AC50 [2]: 0.00411 µM [rising, full curve, poor fit]

Structure (SMILES): Cn1c(C(=O)NCc2cccs2)cc2oc3ccccc3c21
- AC50 [2]: 16.4 µM [falling, single point]

Structure (SMILES): O=C(CC1C(=O)NCCN1Cc1ccccc1C(F)(F)F)NC1CCCCCC1 (configuration not stated)
- cell number change: 27.2%
- AC50 [2]: 10.3 µM [falling, partial curve]
